## Results from one PubChem assay

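Red blood cells carrying GB4 malaria parasites are cultured for three days, and parasite DNA fluorescence shows how much they multiplied.
Compounds were tested as a seven-point series from 0.00037 to 6.7 µM.
The number is the fitted AC50 for blocking parasite growth, and a lower value means a more potent inhibitor.
Calls follow curve class and a score scaled by fitted AC50: scores of 40 to 100 are active, 1 to 39 are inconclusive, and 0 is inactive.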

Values are in µM.
All entries here are filed as inconclusive.
These entries are mostly ones the record files as inconclusive; other results of the assay are not listed here.
A potency from a partial, single-point or poor curve is only a rough figure.
Activity scores are not listed here.
An entry listed twice with the same setting is a separate test.

structure | fitted potency (µM) | remark
C[C@@H]1CC[C@H]2C(=O)N(Cc3ccc(Cl)cc3)C[C@H](O)CN2[C@@H]1c1ccc(Br)cc1 | 3.381 | inhibitor, single point
COC(=O)C1=C(C)N(Cc2ccccc2)C(=NCc2ccc(OC)cc2)NC1c1ccccc1 (centres undefined) | 1.694 | inhibitor, partial curve
CC=CC1=Cc2ccccc2C(C(C(=O)OC)C(=O)OC)N1C(=O)OC (centres undefined) | 1.694 | inhibitor, partial curve
CCOC(=O)CCCNC(=O)N1CCc2nc(COc3ccccc3)c3c(c2C1)CO[C@@H](C)C3 | 3.381 | inhibitor, partial curve, poor fit
COC1=C(C(=O)c2ccccc2)C(=O)[C@@]2(CC=C(C)C)C[C@H](C(=O)OCC(F)(F)F)C(C)(C)[C@@]1(CC=C(C)C)C2=O | 3.381 | inhibitor, single point
COc1cc2c(cc1OC)[C@@H]1O[C@](CCCCN3C(=O)c4ccccc4C3=O)(C2)OC2=C1C(=O)CCC2 | 1.51 | inhibitor, partial curve
CCOC(=O)OC[C@H]1O[C@H](C#Cc2ccccc2)C=C[C@H]1OC(=O)OCC | 2.133 | inhibitor, single point
CCOC(=O)CCCNC(=O)N1CCc2nc(COc3ccccc3)c3c(c2C1)CO[C@@H](C)C3 | 1.694 | inhibitor, single point
CC(C)(C)OC(=O)C1=NOC2(C=CC(=O)C=C2)C1 | 4.776 | inhibitor, single point
C[C@@H]1CC[C@H]2C(=O)N(Cc3ccc(Cl)cc3)C[C@@H](O)CN2[C@H]1c1cccc(Br)c1 | 1.901 | inhibitor, partial curve
COC(=O)C1=C(C)N(Cc2ccccc2)C(=S)NC1c1cccc(C(F)(F)F)c1 (centres undefined) | 1.346 | inhibitor, single point
C#Cc1ccccc1C[C@]1(C(=O)OC)C=C[C@H](C)[C@@H](c2ccccc2Br)N1C(=O)C(F)(F)F | 2.133 | inhibitor, single point
CC(=O)OC[C@H]1O[C@H](C#Cc2ccc(C)cc2C)C=C[C@H]1OC(C)=O | 1.51 | inhibitor, partial curve
COc1ccc(O[C@H]2C=C[C@@H](c3ccccc3)O[C@H]2COC(=O)CCC(C)=NO[C@H](C)CN2CCCc3nc(C)c(C)cc32)cc1 | 1.694 | inhibitor, partial curve
COc1ccc([C@]23Cc4cc(C#N)ccc4[C@H](O2)c2c(cc(-c4ccccc4)oc2=O)O3)cc1 | 1.51 | inhibitor, partial curve

The last 2 entries again:

* COc1ccc(O[C@H]2C=C[C@@H](c3ccccc3)O[C@H]2COC(=O)CCC(C)=NO[C@H](C)CN2CCCc3nc(C)c(C)cc32)cc1 : fitted potency 1.694 µM (inhibitor, partial curve)
* COc1ccc([C@]23Cc4cc(C#N)ccc4[C@H](O2)c2c(cc(-c4ccccc4)oc2=O)O3)cc1 : fitted potency 1.51 µM (inhibitor, partial curve)

Data taken from PubChem BioAssay AID504315, deposited by NCATS (2011).